Holding throughout (assay): NMR titration; 1H-15N HSQC of ~50 uM 15N-labelled 3xFLAG-N-myc(1-137); Fbxw7–Skp1 (550 uM stock) added up to [N-myc]:[Fbxw7–Skp1] 1:2; TBS buffer; kinases quenched with 8 mM EDTA; both purified
In assay [1] the target is 3xFLAG-N-myc_(1–137) pThr58 pSer62 (UniProt P04198).
Assay [2] deals with 3xFLAG-N-myc_(1–137) pSer62 (UniProt P04198).
Assay [3] deals with 3xFLAG-N-myc_(1–137), unphosphorylated (UniProt P04198).

The chains behind the UniProt entries cited, without tags or fusion partners. Where a name states a change or a piece, a line headed by the entry shows the natural chain unless it says otherwise. Residues count along the entry.
UniProt P04198, residues 1-137: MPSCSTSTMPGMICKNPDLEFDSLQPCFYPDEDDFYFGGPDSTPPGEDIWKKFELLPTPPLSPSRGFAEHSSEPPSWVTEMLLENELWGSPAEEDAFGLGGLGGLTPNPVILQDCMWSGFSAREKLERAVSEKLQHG
UniProt Q969H0: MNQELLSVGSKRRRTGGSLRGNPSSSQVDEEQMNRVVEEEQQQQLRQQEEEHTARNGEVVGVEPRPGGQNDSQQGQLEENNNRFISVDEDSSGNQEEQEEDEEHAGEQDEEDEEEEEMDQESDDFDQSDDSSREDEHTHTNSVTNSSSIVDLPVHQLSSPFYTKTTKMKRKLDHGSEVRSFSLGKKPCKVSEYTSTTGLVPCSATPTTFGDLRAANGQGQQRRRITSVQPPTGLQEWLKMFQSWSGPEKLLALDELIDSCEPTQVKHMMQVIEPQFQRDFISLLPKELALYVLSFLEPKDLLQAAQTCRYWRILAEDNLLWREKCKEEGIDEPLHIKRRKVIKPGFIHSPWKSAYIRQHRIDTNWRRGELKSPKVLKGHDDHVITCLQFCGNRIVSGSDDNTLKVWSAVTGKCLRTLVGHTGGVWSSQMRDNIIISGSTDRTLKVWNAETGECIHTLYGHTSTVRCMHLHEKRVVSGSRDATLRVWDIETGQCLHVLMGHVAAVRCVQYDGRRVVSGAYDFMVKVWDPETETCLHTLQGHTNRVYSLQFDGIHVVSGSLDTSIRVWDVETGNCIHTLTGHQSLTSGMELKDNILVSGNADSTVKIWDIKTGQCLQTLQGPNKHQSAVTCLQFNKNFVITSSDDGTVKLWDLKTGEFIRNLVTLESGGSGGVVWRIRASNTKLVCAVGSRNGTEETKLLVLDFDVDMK

Results are given in words; binding and its absence hold for the method and conditions named. Some entries that bind do so weakly or less than the wild type.

For the substance “Fbxw7–Skp1 complex (from UniProt Q969H0 261-706; P63208 1-163)”, the values for the binding result in assay [1], in assay [2] and in assay [3] were “binds”, “binds weakly” and “binds weakly”, respectively.

These data come from article PMC11555651 (Biochemical Journal, 2024).
